Data reported in paper PMC3946688.
Changes are numbered by the printed parent chain. These are yes or no findings as the source states them, for the method shown. Binding seen in cells or lysates may run through a third protein. Some binding calls cover weakened binding; strength is not graded here. Tags and fused reporters may be left off the sequences shown.

Protein sequences, listed by entry. Tags and fused reporters are not part of them.
UniProt P61244: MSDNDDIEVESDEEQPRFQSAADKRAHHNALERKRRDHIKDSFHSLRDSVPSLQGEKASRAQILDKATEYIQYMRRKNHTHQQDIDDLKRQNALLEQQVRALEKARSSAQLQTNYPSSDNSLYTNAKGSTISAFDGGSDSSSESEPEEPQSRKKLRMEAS

How the values were obtained:
[1] = biological target: T1, Flag-tagged N-Myc (wild type, mouse cDNA) (mouse) (UniProt P03966); experiment: co-IP; 293T cells transfected with Flag-N-Myc (WT or K349R), with or without co-transfected SUMO-2 expression vector; non-denaturing co-IP lysis buffer (50 mM Tris pH 8, 5 mM EDTA, 150 mM NaCl, 0.5% NP-40, 5 mM NEM, 20 mM IAA); immunoprecipitation with anti-Flag M1 beads, immunoblot for endogenous Max
T1 sequence: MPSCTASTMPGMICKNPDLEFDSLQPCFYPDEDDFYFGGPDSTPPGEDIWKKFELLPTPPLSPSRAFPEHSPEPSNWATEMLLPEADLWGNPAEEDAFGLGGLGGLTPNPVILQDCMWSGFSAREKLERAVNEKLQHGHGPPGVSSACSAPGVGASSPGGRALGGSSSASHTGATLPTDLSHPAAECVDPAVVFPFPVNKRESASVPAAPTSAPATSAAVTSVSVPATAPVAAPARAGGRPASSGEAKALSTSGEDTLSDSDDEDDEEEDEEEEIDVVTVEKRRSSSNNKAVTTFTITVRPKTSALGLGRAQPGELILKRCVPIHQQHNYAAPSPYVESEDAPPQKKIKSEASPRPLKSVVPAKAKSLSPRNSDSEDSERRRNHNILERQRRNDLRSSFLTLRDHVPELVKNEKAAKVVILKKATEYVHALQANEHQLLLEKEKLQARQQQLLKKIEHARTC

[2] = biological target: T2, Flag-tagged N-Myc K349R (mouse cDNA) (mouse) (UniProt P03966); experiment: as above
T2 sequence: T1 sequence with K349R

Q: What does the source list for “endogenous Max (from UniProt P61244 1-160)”?
A: binding [1]: binds; binding [2]: binds
